PubChem BioAssay AID192 (DTP/NCI, 2004)
The list does not hold the whole screen: its compounds were picked by chemical class. Other doses and runs of a compound may be missing. T/C gives the treated animals as a percentage of the vehicle group. Some entries give survivors of the animals treated and no T/C: the source files T/C as zero there, which appears to mark a toxic dose or a test without result, not a measured value. Some doses without a T/C left all or most animals alive at the check, yet need not have been tolerated: the source hardly ever lists a survival T/C far under the control, and the zero likely stands for such cases as well. Counts of survivors are from the toxicity check (mostly the fifth day) where no day follows; animals may have died later. Schedules are NCI's codes, taken here to give the interval after Q, in days (D) or hours (H), and the number of doses after X. Where survival is the endpoint, this PubChem deposit counts one and a half times the control or more as active, and values a quarter to a half above the control carry no call in these data; other NCI protocols may use other cut-offs. Some entries were tested several times; the results are listed from low to high. Some T/C values are followed by the survivors on the day toxicity was checked, most often the fifth; without a count or a note in brackets, all were alive then.

System: BDF1 mice, B16 melanoma ip, median survival T/C
Assay: NCI In Vivo Anticancer Drug Screen. Data for tumor model B16 Melanoma (intraperitoneal) in B6D2F1 (BDF1) mice
Conditions: T/C endpoint: median survival time, schedule: Q01DX009 (ip), higher T/C = longer survival
Method: The antitumor activity of compounds was measured in mice bearing transplantable tumors. Survival or tumor size were measured and the results are expressed as the measurement made in the treated group (T) divided by the measurement made in the vehicle treated control group (C). The tumor model used in this assay is B16 Melanoma (intraperitoneal) in B6D2F1 (BDF1) mice

[1] = dose: 12.5 mg/kg/injection, vehicle: Klucel (hydroxypropylcellulose) (HPC)
[2] = dose: 25.0 mg/kg/injection, vehicle: Klucel (hydroxypropylcellulose) (HPC)
[3] = dose: 50.0 mg/kg/injection, vehicle: Klucel (hydroxypropylcellulose) (HPC)
[4] = dose: 100.0 mg/kg/injection, vehicle: Klucel (hydroxypropylcellulose) (HPC)
[5] = dose: 200.0 mg/kg/injection, vehicle: Klucel (hydroxypropylcellulose) (HPC)
[6] = dose: 100.0 mg/kg/injection, vehicle: saline
[7] = dose: 200.0 mg/kg/injection, vehicle: saline
[8] = dose: 400.0 mg/kg/injection, vehicle: saline
[9] = dose: 25.0 mg/kg/injection, vehicle: saline
[10] = dose: 50.0 mg/kg/injection, vehicle: saline
[11] = dose: 0.5 mg/kg/injection, vehicle: Klucel (hydroxypropylcellulose) (HPC)
[12] = dose: 1.0 mg/kg/injection, vehicle: Klucel (hydroxypropylcellulose) (HPC)
[13] = dose: 2.0 mg/kg/injection, vehicle: Klucel (hydroxypropylcellulose) (HPC)
[14] = dose: 4.0 mg/kg/injection, vehicle: Klucel (hydroxypropylcellulose) (HPC)
[15] = dose: 8.0 mg/kg/injection, vehicle: Klucel (hydroxypropylcellulose) (HPC)

Q: `COc1ccc(P(=S)(Cl)Cl)cc1` was tested. Which T/C [1] did it give?
A: 100 % of control

Q: What about the T/C [2] of the same molecule?
A: 86 % of control

Q: What about the T/C [3] of the same molecule?
A: 91 % of control

Q: And the survivor count [4]?
A: 3 of 10

Q: What about the survivor count [5] of the same molecule?
A: 2 of 10

Q: What about the survivor count (dose: 400.0 mg/kg/injection, vehicle: Klucel (hydroxypropylcellulose) (HPC)) of the same molecule?
A: 0 of 10

Q: How did the T/C [3] turn out when `CC[C@@H](C)[C@@H]1NC(=O)/C(=C(\C)O)C1=O.c1ccc(CNCCNCc2ccccc2)cc1` was run?
A: 107 % of control

Q: And the T/C [4]?
A: 107 % of control

Q: What about the T/C [6] of the same molecule?
A: 95 % of control

Q: What about the survivor count [5] of the same molecule?
A: 1 of 10

Q: And the survivor count [7]?
A: 2 of 6

Q: What about the survivor count [8] of the same molecule?
A: 0 of 6

Q: Which results are given for `O=C(CO)Nc1ccc([As](=O)(O)O)cc1`?
A: T/C [6]: 99 % of control; T/C [7]: 100 % of control; T/C [8]: 98 % of control

Q: How did the T/C (dose: 3.12 mg/kg/injection, vehicle: Klucel (hydroxypropylcellulose) (HPC)) turn out when `CCCCOc1ccc(N(CCCl)CCCl)cc1` was run?
A: 122 % of control

Q: And the T/C (dose: 6.25 mg/kg/injection, vehicle: Klucel (hydroxypropylcellulose) (HPC))?
A: 117 % of control

Q: What about the T/C [1] of the same molecule?
A: 139 % of control

Q: What about the T/C [2] of the same molecule?
A: 148 % of control

Q: What about the T/C [3] of the same molecule?
A: 123 % of control

Q: And the survivor count [4]?
A: 10 of 10

Q: What does the source list for `C1COP(OCCOP2OCCO2)O1`?
A: T/C [9]: 116 % of control; T/C [10]: 110 % of control; T/C [6]: 120 % of control; T/C [7]: 90 % of control

Q: For `Oc1ccc(N(CCCl)CCCl)cc1`, which T/C [11] is on record?
A: 109 % of control

Q: What about the T/C [12] of the same molecule?
A: 87 [9 of 10 alive] and 111 % of control

Q: What about the T/C [13] of the same molecule?
A: 122 and 128 % of control

Q: What about the T/C [14] of the same molecule?
A: 146 and 149 % of control

Q: And the T/C [15]?
A: 147 % of control

Q: And the survivor count [15]?
A: 9 of 10

Q: What about the survivor count (dose: 16.0 mg/kg/injection, vehicle: Klucel (hydroxypropylcellulose) (HPC)) of the same molecule?
A: 10 of 10

Q: How did the T/C (dose: 12.5 mg/kg/injection, vehicle: saline) turn out when `O=P1(N(CCCl)CCCl)OCCCN1CCCl` (centres undefined) was run?
A: 104 % of control

Q: What about the T/C [9] of the same molecule?
A: 133 % of control

Q: And the T/C [10]?
A: 147 % of control

Q: What about the T/C [6] of the same molecule?
A: 88 % of control

Q: What about the survivor count [7] of the same molecule?
A: 6 of 6

Q: What does the source list for `CC1CCCCN1.C[CH2][Sn]([Br])([CH2]C)[CH2]C`?
A: T/C (dose: 0.75 mg/kg/injection, vehicle: Klucel (hydroxypropylcellulose) (HPC)): 109 % of control; T/C (dose: 1.5 mg/kg/injection, vehicle: Klucel (hydroxypropylcellulose) (HPC)): 103 % of control; T/C (dose: 3.0 mg/kg/injection, vehicle: Klucel (hydroxypropylcellulose) (HPC)): 113 % of control; T/C (dose: 6.0 mg/kg/injection, vehicle: Klucel (hydroxypropylcellulose) (HPC)): 107 % of control [9 of 10 alive]; T/C (dose: 12.0 mg/kg/injection, vehicle: Klucel (hydroxypropylcellulose) (HPC)): 105 % of control

Q: What does the source list for `NNC(=O)c1cc([N+](=O)[O-])cc([N+](=O)[O-])c1`?
A: T/C (dose: 5.0 mg/kg/injection, vehicle: saline with Tween-80): 106 % of control; T/C (dose: 10.0 mg/kg/injection, vehicle: saline with Tween-80): 104 % of control; T/C (dose: 20.0 mg/kg/injection, vehicle: saline with Tween-80): 102 % of control

Q: With `Cc1[nH]c(=O)[nH]c(=O)c1N(CCCl)CCCl` as the molecule, how does the T/C [11] read?
A: 155 % of control

Q: What about the T/C [12] of the same molecule?
A: 107 % of control

Q: And the survivor count [13]?
A: 10 of 10

Q: And the survivor count [14]?
A: 6 of 10
